This note sets out measurements from paper PMC5222340, “The Arginine Pairs and C-Termini of the Sso7c4 from Sulfolobus solfataricus Participate in Binding and Bending DNA”.

Residue numbers refer to the chain shown, from its start. For at least one entry, the source does not settle the construct or the ends of the probe. For part of these data: The comparison behind a weaker result is the experiment's own reference, which may not be listed here. Protein sequences can lack the tags named with them. For part of these data: At least one verdict rests on a figure or table, not on a statement of the authors.

Data set [1] concerns the target T1, Sso7c4-R11A/R22A (Sulfolobus solfataricus P2) (UniProt A0A0E3K9N8).
T1 sequence (looked up, limits assumed): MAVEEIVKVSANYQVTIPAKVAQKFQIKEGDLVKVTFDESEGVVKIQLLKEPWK
The data set is described as follows: fluorescence polarization. The following applies: no saturation up to 4.33 mM protein; 20 mM Tris-Cl pH 7.5, no added salt, 25 C; FP with 100 nM FAM-DNA, 1 h at room temperature; recombinant protein; label: 5'-FAM.

Data set [2] has as its target T2, Sso7c4 wild-type (Sulfolobus solfataricus P2) (UniProt A0A0E3K9N8).
T2 sequence (looked up, limits assumed): T1 sequence (looked up, limits assumed) with A11R, A22R
The data set can be described thus: bulk FRET. The following applies: saturating protein, little distance change; 20 mM Tris-Cl pH 7.5, no added salt, 25 C; recombinant protein; label: Cy3 and Cy5 on the 5' ends.

The target of data set [3] is T3, C-terminally truncated Sso7c4 del49-54 (Sulfolobus solfataricus P2) (UniProt A0A0E3K9N8).
T3 sequence (looked up): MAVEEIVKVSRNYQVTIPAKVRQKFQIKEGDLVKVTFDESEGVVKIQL
The data set is described as follows: bulk FRET. The following applies: saturating protein, distance unchanged; 20 mM Tris-Cl pH 7.5, no added salt, 25 C; recombinant protein; residues 1-48; label: Cy3 and Cy5 on the 5' ends.

With “CCAACACTGGCCAGTGTTGG (double strand) [5'-FAM-20-bp DNA]”, the binding result in data set [1] is listed as “binds more weakly”.
As for “CGTGCTCTGCGATCTCTTCG (double strand) [20 bp FRET DNA]”, the binding result in data set [2] and in data set [3] was “binds” throughout.
